Data from PubChem BioAssay AID504444 (National Center for Advancing Translational Sciences (NCATS), 2011).
“And” between values parts separate entries of the source, which are not always exact repeats. Equal values may be shown once. Screen size: about 360,000 compounds; about 7,500 (2.1%) were called active. This list was built around the results that the source calls inconclusive (neither active nor inactive); the mix of calls is not that of the screen. Calls come from the whole dose curve; as a rule, active = well fitted inhibition curve with a large enough effect; inconclusive = small, poorly fitted or top-dose-only effect, or effect the other way; inactive = flat fitted curve, though single readings scatter. Where the call is inconclusive, the potency comes from a doubtful curve fit.

Test: Nrf2 qHTS screen for inhibitors; note: nearly all actives have a fitted effect of over 60% in size
Conditions: A549 ARE-Fluc reporter, luciferase luminescence, 18-24 h; series mostly up to 46 µM
Outline: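 Nrf2 function is reported as luminescence of an ARE-controlled luciferase in A549 cells. Compounds were tested at several concentrations, and a CellTiter-Fluor read on the same wells flagged cytotoxicity.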
Potency is the fitted concentration of half-maximal effect.

| SMILES | Potency |
| --- | --- |
| CCCN1C=CC(=C2C(=O)c3ccccc3C2=O)C=C1 | active: 3.26 µM |
| COc1ccc(N(CC(=O)NCCc2cccc(C)c2)S(=O)(=O)c2c(C)nn(C)c2C)cc1 | inactive |
| Cc1nc(C)c(C(=O)N/N=C/c2c[nH]c3ccccc23)s1 | inconclusive: 3.66 µM [activator, single point] |
| O=C(COC(=O)C1CC1)Nc1ccc(N=Nc2ccccc2)cc1 | inconclusive: 0.92 µM [activator, full curve] |
| O=Cc1cccc2ccc3cccc(C(=O)O)c3c12 | inactive |
| COc1nc(N(C)S(=O)(=O)c2ccc(C)cc2)nc(C)c1Br | active: 4.11 µM |
| CCCS(=O)(=O)N1CCC(C(=O)NCC2CCCO2)CC1 (stereo not drawn) | inconclusive: 16.4 µM [activator, single point] |
| COc1ccc(CN2CCC(n3nccc3NC(=O)CCc3ccccc3)CC2)c(C)c1C | inconclusive: 13 µM [activator, partial curve, poor fit] |
| COC(=O)c1ccc(COc2cccc3c2OC(C)(C)C3)cc1 | inactive |
| COc1cc(-c2nnc(SCC(=O)Nc3ccc(F)c(Cl)c3)o2)cc(OC)c1OC | inactive |
| O=C(COC(=O)c1ccc2ncsc2c1)NCc1ccc(F)cc1 | inconclusive: 29.1 µM [activator, partial curve, poor fit] |
| Cc1cc(C)n2nc(SCC(=O)Nc3ccccc3)nc2n1 | inactive |
| Cc1cc2nc(-c3cc(NC(=O)c4cc5ccccc5o4)ccc3Cl)oc2cc1C | inconclusive: 4.11 µM [activator, partial curve, poor fit] |
| CC1=C(C(=O)OCc2ccccc2)C(c2ccccc2OC(F)F)NC(=O)N1 (stereo not drawn) | active: 23.1 µM |
| COC(CNC(=O)c1ccc(N2CCc3ccccc32)c([N+](=O)[O-])c1)OC | inconclusive: 18.4 µM [falling, single point] |
| CCn1c(-c2cc(OC)ccc2OC)csc1=Nc1c(C)n(C)n(-c2ccccc2)c1=O | inconclusive: 20.6 µM [falling, single point] |
| Cc1ccc(C(=O)NCC(C)NC(=O)c2ccc(C)c([N+](=O)[O-])c2)cc1[N+](=O)[O-] (stereo not drawn) | inconclusive: 14.6 µM [falling, partial curve, poor fit] |
| Cc1oc(-c2ccc(Cl)cc2)nc1CS(=O)CC(=O)NCc1ccc(Cl)cc1 (stereo not drawn) | inactive |
| N/C(=N\OC(=O)Cc1cccs1)c1ccccc1 | inconclusive: 2.59 µM [activator, full curve, poor fit] |
| Cc1ccn(CC(=O)NC2CCCN(Cc3ccc(CC(C)C)cc3)C2)n1 (stereo not drawn) | inconclusive: 29.1 µM [falling, single point] |
| CCCCOc1ccc(CNC(=O)C2CCN(c3nnc(-n4cccc4CNc4ccc(C)cc4)s3)CC2)cc1 | inconclusive: 7.31 µM [falling, partial curve, poor fit] |
| CCOC(=O)c1c(NC(=O)C2=C(C)NC(=S)NC2c2ccc(F)cc2F)sc(C)c1C (stereo not drawn) | inconclusive: 29.1 µM [falling, single point] |
| Cc1ccc(NC(=O)Cc2nnc(SCC(=O)Nc3nncs3)n2C)c(C)c1 | inconclusive: 29.1 µM [activator, single point] |

5 structures out of the list, sorted by molar mass, low to high:

| SMILES | Potency |
| --- | --- |
| O=C(COC(=O)C1CC1)Nc1ccc(N=Nc2ccccc2)cc1 | inconclusive: 0.92 µM [activator, full curve] |
| O=C(COC(=O)c1ccc2ncsc2c1)NCc1ccc(F)cc1 | inconclusive: 29.1 µM [activator, partial curve, poor fit] |
| COc1nc(N(C)S(=O)(=O)c2ccc(C)cc2)nc(C)c1Br | active: 4.11 µM |
| Cc1oc(-c2ccc(Cl)cc2)nc1CS(=O)CC(=O)NCc1ccc(Cl)cc1 (stereo not drawn) | inactive |
| CCCCOc1ccc(CNC(=O)C2CCN(c3nnc(-n4cccc4CNc4ccc(C)cc4)s3)CC2)cc1 | inconclusive: 7.31 µM [falling, partial curve, poor fit] |

More results.

| SMILES | Potency |
| --- | --- |
| N#Cc1nc(N2CCCC2)nc(N2CCCC2)n1 | active: 3.66 µM and active: 5.17 µM |
| CCN(CC)c1ccc(C(=O)OCC(=O)Nc2ccccc2-c2ccccc2)cc1 | inconclusive: 29.1 µM [falling, single point] |
| COc1cc(Cn2c(=O)sc3ccccc32)ccc1OC(C)C | inconclusive: 18.4 µM [falling, single point] |
| O=C(Cc1cccs1)N1CCN(S(=O)(=O)c2ccc(Cl)c(C(F)(F)F)c2)CC1 | inconclusive: 20.6 µM [falling, single point] |
| N#Cc1c(NC(=O)c2ccccc2)sc2c1CCCCC2 | inconclusive: 0.517 µM [activator, full curve] |
| COC1=CC(=O)C(O)=C(CCCCCCC/C=C/CCCCCCCC2=C(O)C(=O)C=C(OC)C2=O)C1=O | inconclusive: 29.1 µM [falling, single point] |
| Cc1ccc(-c2nc3cc(C(C)C)ccc3o2)cc1NC(=O)c1cccs1 | inconclusive: 4.11 µM [activator, partial curve] |
| COc1ccc2nc(C)cc(N3CCN(S(=O)(=O)c4ccccc4F)CC3)c2c1 | inactive |
| Cn1c(-c2ccc3ccccc3n2)[n+](C)c2ccccc21 | inconclusive: 1.64 µM [falling, full curve] |
| Cc1cccc(NC(=O)CSc2nc3ccc(NC(=O)c4ccco4)cc3s2)c1 | inconclusive: 20.6 µM [falling, single point] |
| CN(NC(=O)Nc1ccc(Cl)cc1)c1c(Cl)c(Cl)nn1C | inactive |
| CCCc1cc(=O)[nH]c(SCC(=O)c2cc(C)n(C(C)COC)c2C)n1 (stereo not drawn) | inactive |
| CCOc1nc(-c2ccccc2)ccc1-c1noc(COC)n1 | inconclusive: 18.4 µM [falling, partial curve, poor fit] |
| CCC1Nc2ncnc(N3CCN(c4ccccc4)CC3)c2N(Cc2ccc(Br)cc2)C1=O (stereo not drawn) | inconclusive: 29.1 µM [falling, single point] |
| CCOc1ccc(-c2c(C)nn3c(C)c(C(=O)Nc4ccccc4C(=O)OC)cnc23)cc1OCC | inactive |
| O=C1Nc2c(Br)cc(Br)cc2C1(O)N1CCOCC1 (stereo not drawn) | inconclusive: 29.1 µM [falling, single point] |
| Cc1nc(=O)c(-c2ccccc2)c(C)n1-c1ccc(Br)cc1 | inconclusive: 0.231 µM [falling, full curve] |
| CCc1nc(SCC(=O)Nc2ccccc2OC)c2c(C)c(C)sc2n1 | inconclusive: 23.1 µM [falling, single point] |
| O=C(O)C1CSC(c2ccc3c(c2)OCO3)N1 (stereo not drawn) | inconclusive: 29.1 µM [activator, single point] |
| CCc1ccc2oc(-c3cc(N)ccc3O)nc2c1 | inconclusive: 20.6 µM [activator, partial curve] |
| Cc1nc2ccccc2n1CC(=O)NC1CCCCCC1 | inactive |
| O=c1c2ccccc2nnn1CSc1ccccc1 | inconclusive: 6.51 µM [activator, partial curve] |
| CC(=O)c1ccc(-c2ccc([C@H]3[C@@H]4C=CCC[C@@]4(C)C(=O)N3Cc3ccccc3)c(F)c2)cc1 | active: 23.1 µM |

| SMILES | Potency |
| --- | --- |
| CCOc1ccc(CNc2ccc3c(c2)ncn3C)cc1 | inactive |
| CCc1ccccc1NC(=O)C1CCC(CNS(=O)(=O)c2ccc3c(c2)CC(C)N3C(C)=O)CC1 (stereo not drawn) | inconclusive: 20.6 µM [falling, single point] |
| CC(NCc1ccc(OCc2ccc(Cl)cc2)cc1)C(O)c1ccccc1 (stereo not drawn) | inconclusive: 25.9 µM [falling, single point] |
| CC(Oc1cccc(F)c1)c1ccnc2nc(/N=C/N(C)C)nn12 (stereo not drawn) | inconclusive: 9.2 µM [falling, partial curve, poor fit] |
| COc1ccc(-c2oc3ncnc(NCCCN(C)C)c3c2-c2ccc(OC)cc2)cc1 | inconclusive: 2.31 µM [falling, partial curve, poor fit] |
| Cc1cn2c(=O)c(S(=O)(=O)NCCc3ccccc3)c(C)nc2s1 | inactive |
| CN(C(=O)c1ccc(NC(=O)Cc2cccc(NC(=O)C3CCCN(S(=O)(=O)c4cccc([N+](=O)[O-])c4)C3)c2)cc1)C1CC1 (stereo not drawn) | inconclusive: 23.1 µM [falling, partial curve] |
| Cc1ccc(N2C(=O)CSC23C(=O)N(CC(=O)NC2CCCCC2)c2ccccc23)cc1 (stereo not drawn) | inconclusive: 29.1 µM [activator, single point] |
| CC(C)OCCCNC(=O)c1ccc(-n2c(-c3ccccc3)cc3c2CCCC3)cc1 | inconclusive: 18.4 µM [falling, single point] |
| CCc1cccc(CC)c1-n1c(SCC(=O)N2CCc3ccccc3C2)nnc1-c1cccnc1 | inconclusive: 16.4 µM [falling, single point] |
| O=C(N/N=C/c1cc([N+](=O)[O-])ccc1O)c1cc(-c2ccccc2)nc2ccccc12 | inconclusive: 14.6 µM [falling, partial curve] |
| Cc1nc2scc(C)n2c(=O)c1S(=O)(=O)NCc1ccccc1 | inactive |
| COc1ccccc1C(=O)OCc1c(-c2ccccc2)ncc2ccccc12 | inconclusive: 32.6 µM [falling, single point] |
| CC(C)(C)NC(=O)C1CC1(c1ccccc1)c1ccccc1 (stereo not drawn) | inconclusive: 29.1 µM [falling, partial curve, poor fit] |
| COc1ccc(CNC(=O)Cc2csc3ccccc23)cc1OC | inconclusive: 8.2 µM [activator, partial curve, poor fit] |
| CCc1nn(CC(=O)N2CCCCC2)c(=O)c2cc3sccc3n12 | inactive |
| COc1cc(CNc2ccccc2)c([N+](=O)[O-])cc1OC | inconclusive: 2.31 µM [falling, partial curve, poor fit] |
| COc1ccccc1CNc1ncnc2c1cnn2-c1ccccc1 | inconclusive: 29.1 µM [falling, single point] |
| CC(=O)NC(=S)Nc1cc(C(F)(F)F)ccc1N1CCOCC1 | active: 25.9 µM |
| Cn1c(CCn2ccccc2=O)nc2cc(NC(=O)COc3ccccc3)ccc21 | inactive |
| O=C(c1cc(S(=O)(=O)N2CCOCC2)ccc1F)N(CCc1ccccc1)Cc1ccccc1 | inactive |
| O=C1N=C(N2CCCC2)S/C1=C\C=C\c1ccccc1 | inconclusive: 3.66 µM [activator, full curve] |
